Where a chain is given by its changes, count along the chain named. In names and notes the source's numbering stands. Results are given in words; binding and its absence hold for the method and conditions named. In cells and extracts the contact can be indirect. Some entries that bind do so weakly or less than the wild type.
B1: RalB, P11234 1-206 (protein)
chain: MAANKSKGQSSLALHKVIMVGSGGVGKSALTLQFMYDEFVEDYEPTKADSYRKKVVLDGEEVQIDILDTAGQEDYAAIRDNYFRSGEGFLLVFSITEHESFTATAEFREQILRVKAEEDKIPLLVVGNKSDLEERRQVPVEEARSKAEEWGVQYVETSAKTRANVDKVFFDLMREIRTKKMSENKDKNGKKSSKNKKSFKERCCLL
B2: constitutively active RalB G23V, P11234 1-206 (protein)
chain: B1 chain with G23V

Molecular target: Exo84-HA, Q8IYI6
Assay: co-IP; HEK293T cells transfected with control or STK38 siRNAs, then with vectors; Exo84-HA immunoprecipitated with anti-HA; basal or EBSS for 90 min; RalB or Beclin1 detected by western blotting
Settings: remark: other sources report otherwise

Row | Binder | binding
1 | B1 | binds
2 | B2 | binds
